Results as given in PubChem BioAssay AID248 (DTP/NCI, 2004).
The list does not hold the whole screen: it gathers tests that were run many times, whatever their T/C, doses with no T/C, and many T/C values between a quarter and a half above the control. Further doses and runs are listed elsewhere. T/C gives the treated animals as a percentage of the vehicle group. Some entries give survivors of the animals treated and no T/C: the source files T/C as zero there, which appears to mark a toxic dose or a test without result, not a measured value. Some survivor counts are full or nearly so, which does not show that the dose was tolerated: survival well below the control is almost never listed, so the zero probably covers shortened survival too. Survivors were counted at the toxicity check, usually on the fifth day, unless a day is given; later deaths do not show. Schedules are NCI's codes, taken here to give the interval after Q, in days (D) or hours (H), and the number of doses after X. Some schedules carry Z or #; the key to these is not given. For survival time, the PubChem record calls one and a half times the control and up active, and a quarter to a half above the control has no call in these data; cut-offs in other NCI protocols can differ.

System: L1210 leukemia ip in BDF1 mice, survival T/C
Assay: NCI In Vivo Anticancer Drug Screen. Data for tumor model L1210 Leukemia (intraperitoneal) in B6D2F1 (BDF1) mice
Details: T/C endpoint: mean survival time, higher T/C = longer survival
[1] = dose: 50.0 mg/kg/injection, schedule: Q01DX009 (ip), vehicle: Klucel (hydroxypropylcellulose) (HPC)
[2] = dose: 400.0 mg/kg/injection, schedule: Q04DX003 (ip), vehicle: Klucel (hydroxypropylcellulose) (HPC)
[3] = dose: 100.0 mg/kg/injection, schedule: Q04DX003 (ip), vehicle: Klucel (hydroxypropylcellulose) (HPC)
[4] = dose: 200.0 mg/kg/injection, schedule: Q04DX003 (ip), vehicle: Klucel (hydroxypropylcellulose) (HPC)

Compound: NC(N)=N/N=C(\c1ccc(Br)cc1)C1CC1
- survivor count (dose: 120.0 mg/kg/injection, schedule: Q01DX Z (ip), vehicle: carboxymethylcellulose (CMC)): 0 of 6
- survivor count (dose: 480.0 mg/kg/injection, schedule: Q01DX Z (oral), vehicle: carboxymethylcellulose (CMC)): 0 of 6
- survivor count (dose: 960.0 mg/kg/injection, schedule: Q01DX Z (oral), vehicle: carboxymethylcellulose (CMC)): 1 of 6

Compound: OC1C2CCN(CC2)C1C(c1ccccc1)c1ccc(F)cc1 (configuration not stated)
- survivor count (dose: 400.0 mg/kg/injection, schedule: Q04DX002 (ip), vehicle: Klucel (hydroxypropylcellulose) (HPC)): 0 of 3

Compound: N\C([S-])=N/N=C\C(=N/N=C(\N)[S-])C(O)C(O)C(O)CO.[Pt+2] (configuration not stated)
- survivor count (dose: 100.0 mg/kg/injection, schedule: Q01DX009 (ip), vehicle: saline): 6 of 6

Compound: COc1ccc(C)cc1NC(=S)NC(=O)c1cccc2ccccc12
- survivor count [1]: 2 of 6
- survivor count (dose: 400.0 mg/kg/injection, schedule: Q01DX009 (ip), vehicle: Klucel (hydroxypropylcellulose) (HPC)): 6 of 6
- survivor count [2]: 0 of 6

Compound: CCOC(=O)C(I)CC (configuration not stated)
- survivor count (dose: 200.0 mg/kg/injection, schedule: Q01DX009 (ip), vehicle: water): 3 of 6
- survivor count (dose: 400.0 mg/kg/injection, schedule: Q01DX009 (ip), vehicle: water): 0 of 6

Compound: CCCCc1nc2c(O)ccc(O)c2nc1C
- survivor count (dose: 300.0 mg/kg/injection, schedule: Q04DX003 (ip), vehicle: other): 3 of 6

Compound: Nc1cccc2cccnc12 (tested in a mixture with another compound)
- survivor count (dose: 100.0 mg/kg/injection, schedule: Q01DX009 (ip), vehicle: DMSO): 1 of 6
- survivor count (dose: 200.0 mg/kg/injection, schedule: Q01DX009 (ip), vehicle: DMSO): 0 of 6
- survivor count (dose: 400.0 mg/kg/injection, schedule: Q01DX009 (ip), vehicle: DMSO): 0 of 6

Compound: CNC(=O)c1ccc[n+](CC(=O)Nc2ccccc2)c1
- survivor count (dose: 400.0 mg/kg/injection, schedule: Q04DX003 (ip), vehicle: saline): 0 of 6

Compound: CC(=O)OC(C[N+](=O)[O-])C(Cl)(Cl)Cl (configuration not stated)
- survivor count (dose: 50.0 mg/kg/injection, schedule: Q04DX003 (ip), vehicle: Klucel (hydroxypropylcellulose) (HPC)): 1 of 6
- survivor count [3]: 1 of 6
- survivor count [4]: 0 of 6
- survivor count [2]: 1 of 6

Compound: CCN(CC)c1ccc(C2NC(=O)c3ccccc3N2)cc1 (configuration not stated)
- T/C (dose: 100.0 mg/kg/injection, schedule: Q01DX009 (ip), vehicle: Klucel (hydroxypropylcellulose) (HPC)): 129 % of control

Compound: Cc1cc(C)c(/C=N/O)c(C)c1
- survivor count (dose: 200.0 mg/kg/injection, schedule: Q01DX009 (ip), vehicle: acetone): 6 of 6

Compound: CCNCCCCNCC
- survivor count (dose: 100.0 mg/kg/injection, schedule: Q01DX009 (ip), vehicle: saline with Tween-80): 5 of 6
- survivor count (dose: 200.0 mg/kg/injection, schedule: Q04DX003 (ip), vehicle: saline with Tween-80): 0 of 6
- survivor count (dose: 400.0 mg/kg/injection, schedule: Q04DX003 (ip), vehicle: saline with Tween-80): 0 of 6

Compound: COc1ccc(C(=O)CBr)c(OC)c1C
- survivor count [1]: 5 of 6
- survivor count [3]: 1 of 6
- survivor count [4]: 0 of 6
- survivor count [2]: 2 of 6

Compound: CC1(C)C2CCC1(C(=O)O)C(=O)C2 (configuration not stated)
- survivor count (dose: 400.0 mg/kg/injection, schedule: Q01DX009 (ip), vehicle: saline with Tween-80): 5 of 6

Compound: O=C(Nc1ccc(C2=NCCN2)cc1)c1cncc(C(=O)Nc2ccc(C3=NCCN3)cc2)n1
- T/C (dose: 62.0 mg/kg/injection, schedule: Q01DX Z (ip), vehicle: carboxymethylcellulose (CMC)): 129 % of control
- survivor count (dose: 375.0 mg/kg/injection, schedule: Q01DX Z (ip), vehicle: carboxymethylcellulose (CMC)): 0 of 6
- survivor count (dose: 500.0 mg/kg/injection, schedule: Q01DX Z (ip), vehicle: carboxymethylcellulose (CMC)): 0 of 6
